SMILES strings stand for the structures. Values joined by “and” are separate entries in the source; they are usually repeats but may differ in a detail not shown here. Identical values can stand only once. The list shows a part of the results. Repeats in this data set agree poorly, so a single value says little.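 HEK293T cells were given each compound shortly before transfection with a reporter in which red mCherry is followed by the SARS-CoV-2 frameshift element and then GFP in the −1 frame, so GFP appears only after frameshifting.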

For this assay, the system named is HEK293T. The assay is described as follows: percent viability (nuclei count) relative to control; higher = more viable cells. Particulars: 10 µM; 24 h.
With `C[C@@H]1C[C@H]2[C@@H]3C[C@H](F)C4=CC(=O)C=C[C@]4(C)[C@@]3(Cl)[C@@H](O)C[C@]2(C)[C@H]1C(=O)CO` [clocortolone], the percent viability came to 406%.
As for `CCCN1CCCC[C@H]1C(=O)Nc1c(C)cccc1C` [ropivacaine], the percent viability was 248%.
Regarding `OCCOCCN1CCN(C(c2ccccc2)c2ccccc2)CC1` [decloxizine], the percent viability is 171%.
The value for `COC(=O)c1ccc(=O)c2nc3c(=CO)c(O)cc(=O)c3[nH]c12` [Lomofungin] was 249%; that for `C[C@H]1[C@H]2CC[C@H]3[C@@H]4CC=C5C[C@@H](N(C)C)CC[C@]5(C)[C@H]4CC[C@]23CN1C` [conessine] was 80%; that for `N[C@@H](CSCC(=O)O)C(=O)O` [carbocisteine] was 117%.
To `Cc1cccc(Nc2ccncc2S(=O)(=O)NC(=O)NC(C)C)c1` [torasemide] belongs 169%; to `Cc1cccc(N(C)C(=S)Oc2ccc3ccccc3c2)c1` [tolnaftate], 266%; to `O=C(NCCCN1CCOCC1)c1ccc(Cl)cc1` [eprobemide], 64.1%.
As to `CCOC(=O)COc1ccc2c(C)c(CCN(CC)CC)c(=O)oc2c1` [Carbocromen], the percent viability was 138%.
To `N=C(N)c1ccc(OCCCCCOc2ccc(C(=N)N)cc2)cc1` [pentamidine] belongs 247% and 319%; to `CCCCCCCCNC(C)C(O)c1ccc(SC(C)C)cc1` (stereo not given), 205%; to `CCCCCCOc1ccccc1C(N)=O` [exalamide], 281%.
Take `N=C(NCCCCCCNC(=N)NC(=N)Nc1ccc(Cl)cc1)NC(=N)Nc1ccc(Cl)cc1` [Chlorhexidine]: the percent viability came to 220%.
For the compound `COc1ccc(-c2nc(C(F)(F)F)sc2-c2ccc(OC)cc2)cc1` [itazigrel], the percent viability was 139%.
For the compound `Cc1[nH]c2ccccc2c1C[C@@H](NC(=O)[C@@H](N)Cc1c[nH]cn1)C(=O)N[C@@H](C)C(=O)N[C@@H](Cc1c[nH]c2ccccc12)C(=O)N[C@H](Cc1ccccc1)C(=O)N[C@@H](CCCCN)C(N)=O` [examorelin], the percent viability is 262%.
`CSCC[C@H](NC(=O)[C@H](Cc1c[nH]c2ccccc12)NC(=O)CNC(=O)[C@@H](NC(=O)[C@H](Cc1ccc(OS(=O)(=O)O)cc1)NC(=O)[C@H](CC(=O)O)NC(=O)[C@H](CCC(N)=O)NC(=O)[C@@H]1CCC(=O)N1)[C@@H](C)O)C(=O)N[C@@H](CC(=O)O)C(=O)N[C@@H](Cc1ccccc1)C(N)=O` [ceruletide]: the percent viability is 202%.
`CCN(CC)CCOC(=O)C(Cc1cccc2ccccc12)CC1CCCO1` (mixture of isomers) [naftidrofuryl]: the percent viability turned out to be 187%.
Take `CC[C@H](C)C(=O)O[C@H]1C[C@@H](C)C=C2C=C[C@H](C)[C@H](CC[C@@H]3C[C@@H](O)CC(=O)O3)[C@H]21` [lovastatin]: the percent viability was 242% and 97.7%.
As for `Clc1cc(-c2ccccc2)ccc1OCCCN1CCOCC1` [chlordimorine], the percent viability was 110%.
Take `Cc1c(C)c2c(c(C)c1O)CCC(C)(CCCC(C)CCCC(C)CCCC(C)C)O2` (stereo not given) [Vitamin E]: the percent viability is 117%.
For `CC1COc2c(N3CCN(C)CC3)c(F)cc3c(=O)c(C(=O)O)cn1c23` (stereo not given) [ofloxacin], the percent viability was 373% and 186%.
The value for `O=C(NC[C@H]1CN(c2ccc(N3CCOCC3=O)cc2)C(=O)O1)c1ccc(Cl)s1` [rivaroxaban] was 207%; that for `O=C(CCCN1CCN2Cc3[nH]c4ccccc4c3CC2C1)c1ccc(F)cc1` (stereo not given) [biriperone] was 432%; that for `CCN(CC)CCNC(=O)c1ccc(N)cc1` [procainamide] was 138% and 289%.
To `C[C@]12C=CC(=O)C=C1CC[C@@H]1[C@@H]2[C@@H](O)C[C@@]2(C)[C@H]1CC[C@]2(O)C(=O)CO` [prednisolone] belongs 324% and 242% and 116%; to `O=c1[nH]cnc2c1ncn2[C@H]1CC[C@@H](CO)O1` [Didanosine], 298%.
On to `C[C@@H](O)[C@@H]1NC(=O)[C@H](CCCCN)NC(=O)[C@@H](Cc2c[nH]c3ccccc23)NC(=O)[C@H](Cc2ccccc2)NC(=O)[C@@H](NC(=O)[C@H](N)Cc2ccccc2)CSSC[C@@H](C(=O)N[C@H](CO)[C@@H](C)O)NC1=O` [Sandostatin], for which the percent viability was found to be 31.5%.
To `Cc1cccc(Oc2cnc(=O)[nH]c2)c1` [tolimidone] belongs 233%; to `Cc1ccc(S(=O)(=O)NC(=O)NC2CCCC2)cc1` [tolpentamide], 185%.
On to `CC(C)(C)C(=O)OCOC(=O)[C@@H]1N2C(=O)[C@@H](/N=C/N3CCCCCC3)[C@H]2SC1(C)C` [pivmecillinam], for which the percent viability was determined as 129%.
To `O=c1[nH]c2ccccc2c2cc(CO)nn12` [pirquinozol] belongs 212%; to `CO[C@H]1/C=C/O[C@@]2(C)Oc3c(C)c(O)c4c(O)c(c5c(nc6cc(C)ccn65)c4c3C2=O)NC(=O)/C(C)=C\C=C\[C@H](C)[C@H](O)[C@@H](C)[C@@H](O)[C@@H](C)[C@H](OC(C)=O)[C@@H]1C`, 360%.
In the case of `CC(=O)SC[C@@H](C)C(=O)N1CCC[C@H]1C(=O)N[C@@H](Cc1ccccc1)C(=O)O` [alacepril], the percent viability amounted to 101%.
To `CC(Cc1cccc(C(F)(F)F)c1)NCCOC(=O)c1ccccc1` (stereo not given) [benfluorex] belongs 222%; to `CCN(CC)CCCC(C)Nc1cc(OC)cc2cccnc12` (stereo not given) [pamaquine], 148%.
The value for `CN(C)/N=N/c1[nH]cnc1C(N)=O` [Dacarbazine] was 210%; that for `CCCC1C(=O)N2C(N(C)C)=Nc3ccc(C)cc3N2C1=O` (stereo not given) [azapropazone] was 397%; that for `Nc1ccc(S(=O)(=O)[O-])cc1.Nc1ccc(S(=O)(=O)[O-])cc1.O.O.O.O.[Zn+2]` was 181%.
As for `CN1C(=N)N(c2ccccc2)CC1=O` [azolimine], the percent viability came to 328%.
